Results as given in publication PMC12278821.
No constants are given. Whether binding was seen depends on the method and setting. In cells and extracts the contact can be indirect. Some results given as binding are weak or reduced against the parent protein; the word gives no strength. Tags and fused reporters may be left off the sequences shown.

The chains behind the UniProt entries cited, without tags or fusion partners.
UniProt O00429: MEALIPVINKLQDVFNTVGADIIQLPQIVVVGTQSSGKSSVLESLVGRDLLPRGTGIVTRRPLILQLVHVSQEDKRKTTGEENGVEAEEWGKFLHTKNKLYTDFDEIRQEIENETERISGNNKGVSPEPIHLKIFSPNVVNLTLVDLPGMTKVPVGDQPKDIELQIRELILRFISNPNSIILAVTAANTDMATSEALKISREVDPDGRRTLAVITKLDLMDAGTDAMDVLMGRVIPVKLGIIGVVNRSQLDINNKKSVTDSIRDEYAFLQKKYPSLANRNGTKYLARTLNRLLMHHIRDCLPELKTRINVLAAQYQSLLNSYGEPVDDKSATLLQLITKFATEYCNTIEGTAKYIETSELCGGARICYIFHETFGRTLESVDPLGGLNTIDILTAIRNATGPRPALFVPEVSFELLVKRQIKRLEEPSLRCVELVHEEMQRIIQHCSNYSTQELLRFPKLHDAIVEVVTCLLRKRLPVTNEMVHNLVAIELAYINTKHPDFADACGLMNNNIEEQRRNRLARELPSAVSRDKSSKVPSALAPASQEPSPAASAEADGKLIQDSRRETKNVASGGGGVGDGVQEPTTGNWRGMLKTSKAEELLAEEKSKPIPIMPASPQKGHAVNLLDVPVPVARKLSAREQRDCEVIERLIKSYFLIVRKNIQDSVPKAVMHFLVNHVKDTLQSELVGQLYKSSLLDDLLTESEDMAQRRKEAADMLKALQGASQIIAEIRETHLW
UniProt O95292: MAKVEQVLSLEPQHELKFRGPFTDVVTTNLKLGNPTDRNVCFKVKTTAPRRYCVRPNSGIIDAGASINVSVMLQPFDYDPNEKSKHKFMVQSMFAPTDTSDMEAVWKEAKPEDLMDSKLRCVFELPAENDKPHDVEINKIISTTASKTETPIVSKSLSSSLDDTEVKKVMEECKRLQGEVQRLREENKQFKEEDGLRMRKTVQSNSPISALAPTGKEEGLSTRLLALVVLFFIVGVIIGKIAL

B1: mCherry-GDAP1 (protein, UniProt Q8TB36 1-358)
chain: MAERQEEQRGSPPLRAEGKADAEVKLILYHWTHSFSSQKVRLVIAEKALKCEEHDVSLPLSEHNEPWFMRLNSTGEVPVLIHGENIICEATQIIDYLEQTFLDERTPRLMPDKESMYYPRVQHYRELLDSLPMDAYTHGCILHPELTVDSMIPAYATTRIRSQIGNTESELKKLAEENPDLQEAYIAKQKRLKSKLLDHDNVKYLKKILDELEKVLDQVETELQRRNEETPEEGQQPWLCGESFTLADVSLAVTLHRLKFLGFARRNWGNGKRPNLETYYERVLKRKTFNKVLGHVNNILISAVLPTAFRVAKKRAPKVLGTTLVVGLLAGVGYFAFMLFRKRLGSMILAFRPRPNYF
B2: mCherry-MFF (protein, UniProt Q9GZY8 1-342)
chain: MSKGTSSDTSLGRVSRAAFPSPTAAEMAEISRIQYEMEYTEGISQRMRVPEKLKVAPPNADLEQGFQEGVPNASVIMQVPERIVVAGNNEDVSFSRPADLDLIQSTPFKPLALKTPPRVLTLSERPLDFLDLERPPTTPQNEEIRAVGRLKRERSMSENAVRQNGQLVRNDSLWHRSDSAPRNKISRFQAPISAPEYTVTPSPQQARVCPPHMLPEDGANLSSARGILSLIQSSTRRAYQQILDVLDENRRPVLRGGSAAATSNPHHDNVRYGISNIDTTIEGTSDDLTVVDAASLRRQIIKLNRRLQLLEEENKERAKREMVMYSITVAFWLLNSWLWFRR
B3: human PEX11b tagged with HIS6MYC tags (protein, UniProt O96011 1-259)
chain: MDAWVRFSAQSQARERLCRAAQYACSLLGHALQRHGASPELQKQIRQLESHLSLGRKLLRLGNSADALESAKRAVHLSDVVLRFCITVSHLNRALYFACDNVLWAGKSGLAPRVDQEKWAQRSFRYYLFSLIMNLSRDAYEIRLLMEQESSACSRRLKGSGGGVPGGSETGGLGGPGTPGGGLPQLALKLRLQVLLLARVLRGHPPLLLDVVRNACDLFIPLDKLGLWRCGPGIVGLCGLVSSILSILTLIYPWLRLKP
B4: mCherry-PEX11A (protein, UniProt O75192 1-247)
chain: MDAFTRFTNQTQGRDRLFRATQYTCMLLRYLLEPKAGKEKVVMKLKKLESSVSTGRKWFRLGNVVHAIQATEQSIHATDLVPRLCLTLANLNRVIYFICDTILWVRSVGLTSGINKEKWRTRAAHHYYYSLLLSLVRDLYEISLQMKRVTCDRAKKEKSASQDPLWFSVAEEETEWLQSFLLLLFRSLKQHPPLLLDTVKNLCDILNPLDQLGIYKSNPGIIGLGGLVSSIAGMITVAYPQMKLKTR
B5: mCherry-PEX11G (protein, UniProt Q96HA9 1-241)
chain: MASLSGLASALESYRGRDRLIRVLGYCCQLVGGVLVEQCPARSEVGTRLLVVSTQLSHCRTILRLFDDLAMFVYTKQYGLGAQEEDAFVRCVSVLGNLADQLYYPCEHVAWAADARVLHVDSSRWWTLSTTLWALSLLLGVARSLWMLLKLRQRLRSPTAPFTSPLPRGKRRAMEAQMQSEALSLLSNLADLANAVHWLPRGVLWAGRFPPWLVGLMGTISSILSMYQAARAGGQAEATTP
B6: mCherry-PEX19 (protein, UniProt P40855 1-299)
chain: MAAAEEGCSVGAEADRELEELLESALDDFDKAKPSPAPPSTTTAPDASGPQKRSPGDTAKDALFASQEKFFQELFDSELASQATAEFEKAMKELAEEEPHLVEQFQKLSEAAGRVGSDMTSQQEFTSCLKETLSGLAKNATDLQNSSMSEEELTKAMEGLGMDEGDGEGNILPIMQSIMQNLLSKDVLYPSLKEITEKYPEWLQSHRESLPPEQFEKYQEQHSVMCKICEQFEAETPTDSETTQKARFEMVLDLMQQLQDLGHPPKELAGEMPPGLNFDLDALNLSGPPGASGEQCLIM

Each molecule was assayed against T1, human PEX11b tagged with HIS6MYC tags (human) (UniProt O96011) (assay: co-IP; mycPEX11b and an mCherry-tagged partner overexpressed in WT HEK293T; lysis in 1% CHAPS, 50 mM Tris-HCl pH 7.4, 150 mM NaCl; Myc-Trap agarose overnight at 4°C, four washes; blot; cells in control or Go6983 (5 μM, 24 h) conditions).
T1 sequence: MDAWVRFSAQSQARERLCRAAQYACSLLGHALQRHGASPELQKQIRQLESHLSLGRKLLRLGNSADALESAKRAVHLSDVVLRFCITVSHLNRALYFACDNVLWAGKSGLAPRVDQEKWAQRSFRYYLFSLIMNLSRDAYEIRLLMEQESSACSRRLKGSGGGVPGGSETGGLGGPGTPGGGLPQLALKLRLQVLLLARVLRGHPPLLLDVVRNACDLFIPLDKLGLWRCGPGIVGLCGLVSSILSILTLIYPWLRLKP

binding, binds:
mCherry-DNM1L (from UniProt O00429 1-736)
B1
B2
B3
B4
B5
B6

The molecules below were run against T2, human ACBD5 tagged with HIS6MYC (human) (UniProt Q5T8D3) (assay: co-IP; mycACBD5 and GFP-VAPB overexpressed in HEK293T; lysis in 1% CHAPS in PBS; Myc-Trap agarose overnight at 4°C, four washes; blot; cells in control, Go6983 (5 μM, 24 h) or PKCD-mCherry overexpression conditions).
T2 sequence: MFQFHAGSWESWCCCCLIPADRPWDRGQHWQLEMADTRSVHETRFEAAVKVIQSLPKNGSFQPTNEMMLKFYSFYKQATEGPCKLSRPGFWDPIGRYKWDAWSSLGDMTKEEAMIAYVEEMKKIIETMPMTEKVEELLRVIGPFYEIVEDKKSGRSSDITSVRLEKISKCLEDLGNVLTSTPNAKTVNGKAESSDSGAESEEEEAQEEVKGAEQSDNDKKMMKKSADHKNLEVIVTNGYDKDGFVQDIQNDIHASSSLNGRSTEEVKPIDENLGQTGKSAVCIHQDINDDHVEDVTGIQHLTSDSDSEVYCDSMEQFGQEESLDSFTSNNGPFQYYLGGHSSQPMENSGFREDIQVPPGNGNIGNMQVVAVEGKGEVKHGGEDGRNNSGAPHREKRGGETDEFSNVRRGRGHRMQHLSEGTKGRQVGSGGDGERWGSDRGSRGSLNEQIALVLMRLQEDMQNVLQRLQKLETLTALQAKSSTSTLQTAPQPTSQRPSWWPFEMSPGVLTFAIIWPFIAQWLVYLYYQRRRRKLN

binding, binds:
GFP-VAPB (from UniProt O95292 1-243)
